Test results from PMC6203814.

The chains behind the UniProt entries cited, without tags or fusion partners. Where a name states a change or a piece, a line headed by the entry shows the natural chain unless it says otherwise. Residues count along the entry.
UniProt O60242: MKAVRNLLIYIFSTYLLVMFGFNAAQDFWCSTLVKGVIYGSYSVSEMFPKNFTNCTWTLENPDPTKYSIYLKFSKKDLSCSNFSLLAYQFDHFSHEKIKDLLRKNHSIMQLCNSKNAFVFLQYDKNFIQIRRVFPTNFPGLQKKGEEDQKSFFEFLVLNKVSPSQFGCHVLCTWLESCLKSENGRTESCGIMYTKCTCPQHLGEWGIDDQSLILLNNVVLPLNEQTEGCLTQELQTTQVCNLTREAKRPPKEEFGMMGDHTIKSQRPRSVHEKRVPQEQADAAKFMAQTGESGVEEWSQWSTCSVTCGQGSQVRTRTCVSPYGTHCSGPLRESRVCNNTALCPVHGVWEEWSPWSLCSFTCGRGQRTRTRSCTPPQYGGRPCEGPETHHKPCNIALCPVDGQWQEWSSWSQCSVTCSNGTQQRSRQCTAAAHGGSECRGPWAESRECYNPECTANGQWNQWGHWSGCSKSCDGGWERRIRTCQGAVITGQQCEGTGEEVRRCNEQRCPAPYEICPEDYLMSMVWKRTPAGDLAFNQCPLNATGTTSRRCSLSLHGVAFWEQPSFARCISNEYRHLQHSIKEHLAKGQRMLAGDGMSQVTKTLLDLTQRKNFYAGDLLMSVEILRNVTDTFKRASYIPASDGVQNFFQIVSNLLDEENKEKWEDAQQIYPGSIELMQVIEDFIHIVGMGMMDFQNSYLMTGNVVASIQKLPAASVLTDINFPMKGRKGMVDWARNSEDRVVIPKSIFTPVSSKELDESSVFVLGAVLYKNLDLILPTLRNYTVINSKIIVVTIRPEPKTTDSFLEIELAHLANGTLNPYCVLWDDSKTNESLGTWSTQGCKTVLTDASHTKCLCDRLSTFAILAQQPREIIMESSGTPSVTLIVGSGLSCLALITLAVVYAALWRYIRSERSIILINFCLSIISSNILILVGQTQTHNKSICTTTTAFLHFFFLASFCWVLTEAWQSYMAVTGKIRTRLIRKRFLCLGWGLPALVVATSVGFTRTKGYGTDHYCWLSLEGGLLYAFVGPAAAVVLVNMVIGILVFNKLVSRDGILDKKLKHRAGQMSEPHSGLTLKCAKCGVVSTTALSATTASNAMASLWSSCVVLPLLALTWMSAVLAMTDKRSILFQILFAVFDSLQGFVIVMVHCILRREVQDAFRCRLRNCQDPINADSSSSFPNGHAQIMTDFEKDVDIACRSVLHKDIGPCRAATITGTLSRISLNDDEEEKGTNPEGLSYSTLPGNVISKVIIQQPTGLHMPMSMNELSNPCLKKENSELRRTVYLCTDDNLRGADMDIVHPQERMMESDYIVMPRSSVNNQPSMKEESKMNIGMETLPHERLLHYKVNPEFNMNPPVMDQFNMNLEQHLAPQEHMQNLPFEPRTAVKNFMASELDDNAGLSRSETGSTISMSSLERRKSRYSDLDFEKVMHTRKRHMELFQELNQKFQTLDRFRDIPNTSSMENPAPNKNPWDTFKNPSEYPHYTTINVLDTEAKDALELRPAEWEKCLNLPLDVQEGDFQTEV
UniProt Q8WWQ8, residues 20-2551: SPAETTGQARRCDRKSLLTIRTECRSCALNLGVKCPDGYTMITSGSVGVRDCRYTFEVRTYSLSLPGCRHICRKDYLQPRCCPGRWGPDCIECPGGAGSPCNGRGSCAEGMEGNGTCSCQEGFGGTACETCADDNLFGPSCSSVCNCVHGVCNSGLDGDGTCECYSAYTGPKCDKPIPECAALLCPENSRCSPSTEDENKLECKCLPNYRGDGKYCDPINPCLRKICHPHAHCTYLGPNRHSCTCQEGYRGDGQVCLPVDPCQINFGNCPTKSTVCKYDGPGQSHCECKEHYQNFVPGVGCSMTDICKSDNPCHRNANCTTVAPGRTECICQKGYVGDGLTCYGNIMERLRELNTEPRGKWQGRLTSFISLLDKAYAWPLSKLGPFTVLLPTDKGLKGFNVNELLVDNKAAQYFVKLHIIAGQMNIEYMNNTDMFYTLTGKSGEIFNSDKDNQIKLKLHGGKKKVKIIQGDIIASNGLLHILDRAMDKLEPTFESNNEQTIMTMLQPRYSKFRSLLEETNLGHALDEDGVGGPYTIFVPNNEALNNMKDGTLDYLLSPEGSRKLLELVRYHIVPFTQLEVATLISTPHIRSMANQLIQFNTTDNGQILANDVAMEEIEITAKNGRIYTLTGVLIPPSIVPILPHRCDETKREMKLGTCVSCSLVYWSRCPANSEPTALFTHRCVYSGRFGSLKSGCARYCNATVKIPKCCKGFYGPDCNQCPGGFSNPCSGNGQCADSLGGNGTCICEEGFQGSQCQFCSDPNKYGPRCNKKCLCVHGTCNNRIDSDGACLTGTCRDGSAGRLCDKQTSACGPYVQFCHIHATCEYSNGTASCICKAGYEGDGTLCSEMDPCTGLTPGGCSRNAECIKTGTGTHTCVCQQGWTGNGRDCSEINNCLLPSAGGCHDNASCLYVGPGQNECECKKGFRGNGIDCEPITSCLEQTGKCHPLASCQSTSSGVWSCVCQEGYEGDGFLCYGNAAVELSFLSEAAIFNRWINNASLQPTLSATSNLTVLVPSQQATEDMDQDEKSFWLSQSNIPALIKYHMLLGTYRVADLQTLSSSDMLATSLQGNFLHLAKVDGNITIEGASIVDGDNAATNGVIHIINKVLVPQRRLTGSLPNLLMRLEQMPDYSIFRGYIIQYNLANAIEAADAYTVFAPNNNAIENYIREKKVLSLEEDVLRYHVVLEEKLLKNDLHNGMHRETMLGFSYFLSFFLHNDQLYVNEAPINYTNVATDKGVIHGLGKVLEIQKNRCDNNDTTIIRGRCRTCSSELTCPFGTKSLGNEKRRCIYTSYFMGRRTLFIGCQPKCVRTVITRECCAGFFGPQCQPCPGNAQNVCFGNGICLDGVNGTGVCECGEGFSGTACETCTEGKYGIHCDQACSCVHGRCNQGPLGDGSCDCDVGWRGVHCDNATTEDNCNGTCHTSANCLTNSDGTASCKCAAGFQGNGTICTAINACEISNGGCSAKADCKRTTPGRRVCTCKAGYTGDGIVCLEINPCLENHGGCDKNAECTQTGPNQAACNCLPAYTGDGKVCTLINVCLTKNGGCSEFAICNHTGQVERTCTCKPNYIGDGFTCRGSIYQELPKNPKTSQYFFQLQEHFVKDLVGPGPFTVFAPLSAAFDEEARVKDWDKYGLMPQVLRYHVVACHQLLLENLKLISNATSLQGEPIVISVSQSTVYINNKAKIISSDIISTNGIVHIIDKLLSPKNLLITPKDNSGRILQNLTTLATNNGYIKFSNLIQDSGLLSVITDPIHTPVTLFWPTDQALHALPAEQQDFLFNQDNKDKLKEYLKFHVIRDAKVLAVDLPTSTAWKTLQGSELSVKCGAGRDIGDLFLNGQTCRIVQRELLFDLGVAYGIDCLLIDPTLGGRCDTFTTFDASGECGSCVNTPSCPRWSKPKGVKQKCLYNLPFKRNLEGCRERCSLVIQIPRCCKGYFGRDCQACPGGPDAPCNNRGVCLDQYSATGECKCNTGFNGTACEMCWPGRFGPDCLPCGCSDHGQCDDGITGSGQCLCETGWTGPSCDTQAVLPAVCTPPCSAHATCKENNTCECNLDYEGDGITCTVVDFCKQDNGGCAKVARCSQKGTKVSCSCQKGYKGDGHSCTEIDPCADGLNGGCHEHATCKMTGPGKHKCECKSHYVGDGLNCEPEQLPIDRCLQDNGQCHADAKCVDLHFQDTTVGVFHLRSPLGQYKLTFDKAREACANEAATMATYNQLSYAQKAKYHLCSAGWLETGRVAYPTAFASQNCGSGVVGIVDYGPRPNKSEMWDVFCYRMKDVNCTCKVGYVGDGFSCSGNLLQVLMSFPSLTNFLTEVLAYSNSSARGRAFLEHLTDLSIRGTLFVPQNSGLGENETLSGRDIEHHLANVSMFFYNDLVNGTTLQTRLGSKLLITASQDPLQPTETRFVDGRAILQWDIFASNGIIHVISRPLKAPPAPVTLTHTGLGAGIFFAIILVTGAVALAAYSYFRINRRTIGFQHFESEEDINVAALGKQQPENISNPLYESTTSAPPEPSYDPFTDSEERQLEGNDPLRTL

Assays:
HA-C1qL4^WT = HA-C1qL4^WT (UniProt Q4ZJM9); assay: co-IP; anti-HA immunoprecipitation of HA-C1qL4 (WT or GW), blot for V5-tagged soluble BAI3 extracellular domain or its fragments
HA-C1qL4^GW = target: T1, HA-C1qL4^GW (UniProt Q4ZJM9); assay: as above
T1 sequence (chain, two engineered N-linked glycosylation sites in the C1q domain): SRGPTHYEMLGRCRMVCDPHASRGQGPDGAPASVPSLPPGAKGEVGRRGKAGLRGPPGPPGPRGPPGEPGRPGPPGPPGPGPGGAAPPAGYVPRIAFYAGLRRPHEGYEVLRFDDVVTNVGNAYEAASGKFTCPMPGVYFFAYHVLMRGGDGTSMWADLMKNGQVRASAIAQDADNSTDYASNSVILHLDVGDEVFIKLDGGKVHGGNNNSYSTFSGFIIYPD

Flag-BAI3^ECD (human) = Flag-BAI3^ECD (human) (UniProt O60242); assay: co-IP; HEK293T or C2C12 cells expressing V5-Stabilin-2 and a Flag-BAI3 form, lysed in 150 mM NaCl, 50 mM Tris pH 7.5, 1% Nonidet-P40; 500 μg extract, antibody and Protein-A agarose 90 min, three washes

Row | binding (HA-C1qL4^WT) | binding (HA-C1qL4^GW) | binding (Flag-BAI3^ECD (human)) | Substance
1 | binds | no binding |  | V5-BAI3^ECD (from UniProt O60242) (domain or fragment)
2 |  |  | binds | full length V5-Stabilin-2 (from UniProt Q8WWQ8 20-2551) (receptor)

No constants are given. Whether binding was seen depends on the method and setting. Binding seen in cells or lysates may run through a third protein. For part of these data: Binding calls can cover weak binding; strength is not graded here. For part of these data: Tags and fused reporters may be left off the sequences shown.
